Data from US9274101B2 (BIOLOG, Inc., priority 2001, dated 2016).
For part of these data: At least one structure is not confirmed: it was looked up by name or label, or the drawing left a doubt. Some results were stated once for a whole list of compounds, not compound by compound.

Tested on: HL-60 cells
Assay: HL-60 responses to selected compounds at a range of concentrations
Assay type: cell-based, human
Conditions: 0.033 to 20 mM; 24 h culture + 24 h color development
Experimental: In this Example, methods for testing unattached cells for their ability to use various concentrations of selected carbon sources are described. The carbon sources used in this Example were identified by the methods disclosed in Example 27. Similarly, HL-60 cells were cultured as described in Example 27.
After washing, HL-60 cells were resuspended in DME-R. An aliquot of the cell suspension was counted by trypan blue exclusion and the cell density was adjusted to 6.67×10^5/mL. Fifty μL of DME-R were added to each well of the appropriate number of half area, 96-well plates, followed by 23 μL of the appropriate dilution of each test energy source. Stocks of 133 mM of each test chemical were prepared in tissue culture grade water, sterile filtered, and dilutions were prepared in a master plate so that, upon dilution in a total volume of 150 μL, the final concentrations would be 0.033 to 20 mM. Negative control wells received 23 μL of tissue culture grade water. The cells were plated at a volume of 75 μL/well, giving a final cell density of 5×10^4/well. For each plate containing energy sources and cells, a second, control plate containing only energy sources was prepared. Plates were incubated at 5% CO2, 90-100% humidity, and 37° C. for 24 hours prior to addition of the MTS/MPMS colorometric reagent (7.5 μL/well). The color formed in each well after an additional 24 hour incubation period, was measured on a plate reader at 490 nm with a reference wavelength of 650 nm. OD values from the control plate were subtracted from the OD values obtained with cells prior to normalizing the data to % negative control (cells without added energy source).

| Compound | response greater than the negative control |
| --- | --- |
| N[C@@H](Cc1c[nH]cn1)C(=O)O [L-histidine] | at least 40% |
| NC(=O)C[C@H](N)C(=O)O [L-asparagine] | at least 40% |
| O=C[C@H](O)[C@@H](O)[C@@H](O)[C@H](O)C(=O)O [D-galacturonic acid] | at least 40% |

Tested on: E. coli MG1655
Assay: PM kinetic profiles of antimicrobials, S-O-R scoring and dendrogram
Assay type: cell-based, Escherichia coli
Conditions: 1× level of each antimicrobial, 7 PMs, 48 hours

| Compound | position in dendrogram of PM response profiles (FIG. 9) |
| --- | --- |
| CN(C)[C@@H]1C(O)=C(C(N)=O)C(=O)[C@@]2(O)C(O)=C3C(=O)c4c(O)cccc4[C@@](C)(O)[C@H]3C[C@@H]12 [Tetracycline, tetracycline] | cluster |

Tested on: HL-60 cells
Assay: HL-60 responses in PM1a, PM6, PM7 and PM8 plates
Assay type: cell-based, human
Conditions: not given
Experimental: In this Example, methods for testing unattached cells for their ability to use various carbon sources including di and tri-peptides are described.
After washing, HL-60 cells were resuspended in DME-R. An aliquot of the cell suspension was counted by trypan blue exclusion and the cell density was adjusted to 1×10^6/mL. Fifty μL of DME-R were added to each well of the appropriate number of half area, 96-well plates. The cells were plated at a volume of 50 μL/well, giving a final cell density of 5×10^4/well. PM1a, MP6, PM7, and PM8 MICROPLATE testing plates were inoculated (these MICROPLATE testing plates are available from Biolog under license). For each plate containing chemicals and cells, a second, control plate containing only chemicals was prepared. All wells contained a total volume of 100 μL. Plates were incubated at 5% CO2, 90-100% humidity, and 37° C. for 1 hour prior to addition of the MTS/MPMS colorometric reagent (5 μL/well). The color formed in each well after an additional 24 hour incubation period, was measured on a plate reader at 490 nm with a reference wavelength of 650 nm. OD values from the control plate were subtracted from the OD values obtained with cells prior to normalizing the data to % negative control (cells without added energy source).

| Compound | positive response, % of the negative control |
| --- | --- |
| NC(=O)CC[C@H](N)C(=O)O [L-glutamine] | greater than 130% |

Tested on: HL-60 cells
Assay: HL-60 cells in PM1 and PM2 plates, MTS/MPMS color, % negative control
Assay type: cell-based, human
Conditions: PM 1 microplate; 5×10^4 cells/well; 24 hour color development

| Compound | positive response, % of the negative (no energy source) control |
| --- | --- |
| COC1OC(CO)C(O)C(O)C1O (stereo not drawn) [β-methyl glucoside] | greater than 130% |
| CC(=O)C(=O)O [Pyruvic acid] | greater than 130% |
| N[C@H](CO)C(=O)O [D-serine] | greater than 130% |
| O=P(O)(O)O[C@H]1O[C@H](CO)[C@@H](O)[C@H](O)[C@H]1O [Glucose-1-phosphate] | greater than 130% |
| NC(=O)CC[C@H](N)C(=O)O [L-glutamine] | greater than 130% |
| Cc1cn([C@H]2C[C@H](O)[C@@H](CO)O2)c(=O)[nH]c1=O [Thymidine] | greater than 130% |
| CC(O)C(=O)O (racemic) [D,L-lactic acid] | greater than 130% |
| O=C[C@H](O)[C@@H](O)[C@H](O)[C@H](O)COP(=O)(O)O [Glucose-6-phosphate] | greater than 130% |
| NC(=O)C[C@H](N)C(=O)O [L-asparagine] | greater than 130% |
| OC[C@H]1O[C@@H](n2cnc3c(O)ncnc32)[C@H](O)[C@@H]1O [Inosine] | greater than 130% |
| O=C[C@H](O)[C@@H](O)[C@@H](O)[C@H](O)C(=O)O [D-galacturonic acid] | greater than 130% |

Same assay, conditions: PM 2 MICROPLATE; 5×10^4 cells/well; 24 hour color development

| Compound | positive response, % of the negative (no energy source) control |
| --- | --- |
| NC(=O)CCC(=O)O [succinamic acid] | greater than 130% |
| N[C@@H](CCO)C(=O)O [L-homoserine] | greater than 130% |
| NCCCC(=O)O [γ-aminobutyric acid] | greater than 130% |
| OC[C@@H](O)[C@@H](O[C@@H]1O[C@H](CO)[C@H](O)[C@H](O)[C@H]1O)[C@H](O)[C@@H](O)CO [lactitol] | greater than 130% |
| COC(=O)[C@@H](C)O [D-lactic acid methyl ester] | greater than 130% |
| CC(=O)C(C)O (stereo not drawn) [3-hydroxy-2 butanone] | greater than 130% |
| glycogen | greater than 130% |
| O=C1CC[C@@H](C(=O)O)N1 [L-pyroglutamic acid] | greater than 130% |
| C[C@H](N)C(N)=O [alaninamide] | greater than 130% |
| N[C@@H](Cc1c[nH]cn1)C(=O)O [L-histidine] | greater than 130% |
| CC(C)[C@H](N)C(=O)O [L-valine] | greater than 130% |
| CC(O)CC(=O)O (stereo not drawn) [β-hydroxybutyric acid] | greater than 130% |
| CC(O)C(C)O (stereo not drawn) [2,3-butanediol] | greater than 130% |
| CC[C@H](C)[C@H](N)C(=O)O [L-isoleucine] | greater than 130% |
| O=C(O)[C@@H]1C[C@@H](O)CN1 [hydroxy L-proline] | greater than 130% |
| O=C1O[C@H](CO)[C@@H](O)[C@H]1O [D-ribono-1,4-lactone] | greater than 130% |
| O=C(O)[C@H](O)[C@@H](O)[C@H](O)[C@H](O)CO[C@H]1O[C@H](CO)[C@H](O)[C@H](O)[C@H]1O [melibionic acid] | greater than 130% |
| chondroitin sulfate C | greater than 130% |
| CC(N)=O [acetamide] | greater than 130% |
| CO[C@H]1O[C@H](CO)[C@H](O)[C@H](O)[C@H]1O [α-methyl galactoside] | greater than 130% |
